The values that follow are results of earlier work, collected in US20200047384A1, “DEVICE FOR THE CONTINUOUS PRODUCTION OF SOLID DOSAGE FORMS, AND USE OF SAID DEVICE FOR MEDICINAL DRUGS AND/OR USE THEREOF FOR FOOD SUPPLEMENTS” (Université de Liège, priority 2016, published 2020).

Molecules are shown by their SMILES.

The conditions of the data set: in water; general statement, no test described.

Turning to `CCC(C)n1ncn(-c2ccc(N3CCN(c4ccc(OCC5COC(Cn6cncn6)(c6ccc(Cl)cc6Cl)O5)cc4)CC3)cc2)c1=O` (stereo not drawn) [Itraconazole, cis-4{4-(4-(4((2-(2,4-dichlorophenyl)-2-(1H-1,2,4-triazol-1-ylmethyl)-1,3-dioxolan-4yl)nnethoxy)phenyl)-1-piperazinyl)phenyl)-2,4-dihydro-2(1-nnethylpropyl)-3H-1,2,4-triazol-3-one], the water solubility entry is listed as “below 1 microgram per milliliter”.
